According to the supplement of paper PMC10689618:
The other results are listed elsewhere or left out. Many values rest on one well or one pass, so single values are uncertain.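 Primary human fetal astrocytes engulfed labelled rat cortical synaptosomes, measured as a red/green ratio corrected for calcein live-cell signal and scaled to the plate median. Toxicity meant calcein falling over 30%; decreased phagocytosis meant below 70% of median above 5 µM.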

Assays:
Human fetal astrocytes [1] = experiment: loss of total cells relative to no-compound high-control median (toxicity); higher = more toxic (fewer cells); conditions: 24 h
Human fetal astrocytes [2] = experiment: synaptosome phagocytosis (pHrodo/calcein intensity ratio) relative to plate median of data wells; higher = more phagocytosis; conditions: 24 h

| SMILES | loss of total cells (Human fetal astrocytes [1]; 1.39 µM) | loss of total cells (Human fetal astrocytes [1]; 2.78 µM) | loss of total cells (Human fetal astrocytes [1]; 5.56 µM) | loss of total cells (Human fetal astrocytes [1]; 11.11 µM) | loss of total cells (Human fetal astrocytes [1]; 22.22 µM) | synaptosome phagocytosis (Human fetal astrocytes [2]; 1.39 µM) | synaptosome phagocytosis (Human fetal astrocytes [2]; 2.78 µM) | synaptosome phagocytosis (Human fetal astrocytes [2]; 5.56 µM) | synaptosome phagocytosis (Human fetal astrocytes [2]; 11.11 µM) | synaptosome phagocytosis (Human fetal astrocytes [2]; 22.22 µM) |
| --- | --- | --- | --- | --- | --- | --- | --- | --- | --- | --- |
| C[C@H](CCC(=O)O)[C@H]1CC[C@H]2[C@@H]3[C@H](O)C[C@@H]4C[C@H](O)CC[C@]4(C)[C@H]3CC[C@]12C | -5.6% | 3.7% | -7.7% | -2.6% | 38.6% | 91.5% | 102% | 77% | 93.8% | 107% |
| CC(C)c1c(O)ccc2c1CC[C@H]1C(C)(C)CCC[C@]21C | -12% | 2% | 42% | 35.5% | 43.3% | 109% | 101% | 118% | 128% | 64.8% |
| NS(=O)(=O)c1cc2c(cc1Cl)NC(C(Cl)Cl)NS2(=O)=O (stereo not given) | -3.9% | -2.4% | -14.6% | -7.2% | 20.4% | 124% | 112% | 144% | 102% | 122% |
| CCOc1ccc2c(c1)C(C)=CC(C)(C)N2 | 2.5% | -1.1% | 16.7% | 29.7% | 50.8% | 97.9% | 127% | 108% | 110% | 87.2% |
| NCC[C@H](O)C(=O)N[C@@H]1C[C@H](N)[C@@H](O[C@H]2O[C@H](CN)[C@@H](O)[C@H](O)[C@H]2O)[C@H](O)[C@H]1O[C@H]1O[C@H](CO)[C@@H](O)[C@H](N)[C@H]1O | -16.6% | -19.2% | 20.1% | 8.6% | 15.3% | 115% | 112% | 112% | 122% | 124% |
| CC(C)=CCC1=C(O)c2ccccc2C(=O)C1=O | 9.7% | 6.9% | 21% | 18% | 27.3% | 114% | 130% | 144% | 100% | 157% |
| COc1cc2ccc(=O)oc2c(OC)c1OC | -6.2% | 17.9% | -24.4% | 24.5% | -2.6% | 102% | 92.6% | 75.8% | 129% | 95.7% |
| NCCCC[C@H](N[C@@H](CCc1ccccc1)C(=O)O)C(=O)N1CCC[C@H]1C(=O)O | 2.5% | 2.1% | 14.1% | 7.8% | 17% | 78% | 116% | 106% | 110% | 103% |
| O=C(O)c1ccc(S(=O)(=O)N(Cl)Cl)cc1 | 6.8% | -9.8% | -11.1% | 3.2% | 47.7% | 82.9% | 111% | 146% | 113% | 101% |
| CC(=O)OC1CC[C@@]2(C)C(CC[C@H]3[C@@H]4CC=C(C(C)=O)[C@@]4(C)C(=O)C[C@@H]32)C1 (stereo not given in full) | -19.9% | -5.3% | 31.3% | -1.3% | 41.1% | 94% | 109% | 132% | 84.1% | 146% |
| CN(C)CCC[C@@]1(c2ccc(F)cc2)OCc2cc(C#N)ccc21 | -38.7% | -31.7% | -8.7% | 12.1% | 2.8% | 89.2% | 75.9% | 94% | 106% | 97.3% |
| COCC1=C(C(=O)OC(C)OC(=O)OC(C)C)N2C(=O)[C@@H](NC(=O)/C(=N\OC)c3csc(N)n3)[C@H]2SC1 (stereo not given in full) | -31.5% | -23.8% | 0.6% | -1.6% | 6.5% | 87.4% | 85.6% | 93.1% | 83.7% | 109% |
| CCn1cc(C(=O)O)c(=O)c2cnc(N3CCCC3)nc21 | 14.1% | -1.8% | -53.6% | -102% | 24.2% | 118% | 98.6% | 3.4% | 7.4% | 123% |
| Cn1c2ncnc-2c(O)n(C)c1=O | -13.4% | 6.1% | -6.5% | -0.4% | 4.5% | 73.9% | 116% | 74.6% | 106% | 106% |
| CC1CCC(C(C)C)C(O)C1 (stereo not given) | -29% | -3.2% | -11.8% | 32.5% | -7.2% | 91.5% | 119% | 89% | 128% | 106% |
| CN1CCCC(n2nc(Cc3ccc(Cl)cc3)c3ccccc3c2=O)CC1 (stereo not given) | -32.3% | 18.3% | 3.1% | 37% | 16.5% | 64.6% | 134% | 95.7% | 97.5% | 84.5% |
| CC(=O)OCC(=O)[C@@]1(O)CC[C@H]2[C@@H]3CCC4=CC(=O)CC[C@]4(C)[C@H]3[C@@H](O)C[C@@]21C | -9.2% | -21.4% | -25.1% | 10.1% | -9.4% | 115% | 119% | 120% | 83.6% | 95.2% |
| C[N+](C)(C)CC(O)CC(=O)[O-] (stereo not given) | -6.9% | 6.9% | -16.7% | -2.9% | 4.5% | 76.3% | 91.1% | 96.4% | 132% | 115% |
| OC[C@H]1O[C@H](O[C@]2(CCl)O[C@H](CCl)[C@@H](O)[C@@H]2O)[C@H](O)[C@@H](O)[C@H]1Cl | -13.4% | 0% | 35.1% | -3.9% | 15.2% | 112% | 110% | 124% | 81.7% | 123% |
| C[C@@H]1C[C@H]2[C@@H]3CCC4=CC(=O)C=C[C@]4(C)[C@@]3(F)[C@@H](O)C[C@]2(C)[C@@]1(O)C(=O)COP(=O)(O)O | 4.5% | -30.8% | -2.8% | -22.2% | -19.8% | 97.2% | 126% | 142% | 117% | 81.4% |

Only synaptosome phagocytosis (Human fetal astrocytes [2]; 22.22 µM), synaptosome phagocytosis (Human fetal astrocytes [2]; 1.39 µM) and loss of total cells (Human fetal astrocytes [1]; 1.39 µM) (two entries from above):
SMILES | synaptosome phagocytosis (Human fetal astrocytes [2]; 22.22 µM) | synaptosome phagocytosis (Human fetal astrocytes [2]; 1.39 µM) | loss of total cells (Human fetal astrocytes [1]; 1.39 µM)
COc1cc2ccc(=O)oc2c(OC)c1OC | 95.7% | 102% | -6.2%
NCCCC[C@H](N[C@@H](CCc1ccccc1)C(=O)O)C(=O)N1CCC[C@H]1C(=O)O | 103% | 78% | 2.5%
